From PMC7819943, “Rice protein-binding microarrays: a tool to detect cis-acting elements near promoter regions in rice”
Some of the results follow.

The sequences below were run against T1, OsSMF1 (Oryza sativa, UniProt Q6ZLB0 1-436) (assay: protein-binding microarray (RPBM); PBS, 2% BSA, 51.3 ng/ul salmon testes DNA, 50 uM zinc acetate, 200 nM TF, 25 C, 1 h; high values mean tight binding). Settings: protein: recombinant; tags: N-terminal polyhistidine and DsRed monomer fusion (pET32a); chain copies: 2; label: CyDye5-dUTP incorporated in the synthesized complementary strand; 3' TTTTT single-stranded linker to array surface; dsDNA, one strand shown.
T1 sequence: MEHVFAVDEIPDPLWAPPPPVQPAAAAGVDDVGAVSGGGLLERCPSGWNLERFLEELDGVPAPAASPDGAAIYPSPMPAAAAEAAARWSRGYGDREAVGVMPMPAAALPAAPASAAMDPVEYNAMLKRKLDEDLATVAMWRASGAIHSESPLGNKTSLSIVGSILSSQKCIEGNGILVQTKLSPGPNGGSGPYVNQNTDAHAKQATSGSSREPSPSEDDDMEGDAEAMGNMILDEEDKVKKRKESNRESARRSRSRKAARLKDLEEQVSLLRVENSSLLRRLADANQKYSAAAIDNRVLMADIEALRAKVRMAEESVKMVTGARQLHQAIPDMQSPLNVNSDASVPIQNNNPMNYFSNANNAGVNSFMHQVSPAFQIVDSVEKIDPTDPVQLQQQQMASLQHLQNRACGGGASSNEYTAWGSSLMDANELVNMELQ
In short: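 The binding signal is fluorescence intensity per array feature (arbitrary units). Readings came from an Axon 4000B scanner after a washed, 2% BSA-blocked, double-stranded custom Agilent array had been incubated for 1 h at 25 °C with 200 nM protein and 50 µM zinc acetate. The protein was a Ni–NTA-purified transcription factor fused N-terminally to polyhistidine and DsRed, expressed in E. coli BL21-CodonPlus.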

Sequence	binding signal
AGGATTGTTGACATGTCCTTTGTTTTAGACTGGGCAGTGTCGGAGTCACCTAGTGCAG	3650 fluorescence intensity (a.u.)
ATGCATGAGTCACTCACCGCTCAGCAGGTCTTCGTCACTGCGGAGTCACCTAGTGCAG	10100 fluorescence intensity (a.u.)
TGTGACACATGTTACACATAATTATTATGTGAGTGGTAAACGGAGTCACCTAGTGCAG	4020 fluorescence intensity (a.u.)
ACCCTGACCTGACATGGAATATGCCCTAGTATATGTTGTTCGGAGTCACCTAGTGCAG	4960 fluorescence intensity (a.u.)
ATCTCGGATAGCGTCCACGTGAATAAGCTTGAGCTCGATTCGGAGTCACCTAGTGCAG	3620 fluorescence intensity (a.u.)
AGATAAATATAATAACCTTGTGATAACCATGCGGTTTGGTCGGAGTCACCTAGTGCAG	3590 fluorescence intensity (a.u.)
CAGTGCCCTTTCCCCACATCAGCTGTCCGATCCGGCAGTCCGGAGTCACCTAGTGCAG	4360 fluorescence intensity (a.u.)
CCCTTATGATTTCTAGATCGTAGTGTGTTGCCTTGTTAAACGGAGTCACCTAGTGCAG	3480 fluorescence intensity (a.u.)
TGTAACAATGTTTAATGATCAATAAAGCTAGCCGAATGGTCGGAGTCACCTAGTGCAG	3280 fluorescence intensity (a.u.)
CGCAAACAGCAAGCAGCGTTGCCGGCCTTGGCTTGGCTGGCGGAGTCACCTAGTGCAG	3360 fluorescence intensity (a.u.)
AAGGAATCTGGACGCCACCCCACCACACCACCACTACCCCCGGAGTCACCTAGTGCAG	3790 fluorescence intensity (a.u.)
CCAGCCGCGCCACCGCTCCCTCGCTGACCTGCCCGTGTTCCGGAGTCACCTAGTGCAG	3350 fluorescence intensity (a.u.)
ATGTGCAAATTTCTCTTGATGATGACAGTTCAAAGGATGACGGAGTCACCTAGTGCAG	3390 fluorescence intensity (a.u.)
TATTTGTTGCTTAGTGCCTCCATCATGTTTACTGGTTGGTCGGAGTCACCTAGTGCAG	3380 fluorescence intensity (a.u.)
AGCTTCATAGGAAAACTTCCCTAAAGATTTAAATCTTATGCGGAGTCACCTAGTGCAG	3280 fluorescence intensity (a.u.)
AGTTAGCATTGTGATGTGGCACATCTAATCTCATCTCTCTCGGAGTCACCTAGTGCAG	7510 fluorescence intensity (a.u.)
ACCGACCCTTCCGACCGGTTCTTCCGGTGCCACGCACTCACGGAGTCACCTAGTGCAG	4520 fluorescence intensity (a.u.)
ATTCTGGCTGACCCTTGGGTGAGTCACAATAGATGTGTATCGGAGTCACCTAGTGCAG	13800 fluorescence intensity (a.u.)
ATGATGCTTCAAGAAGGTCATGACGCTCTTATTTGTGTTGCGGAGTCACCTAGTGCAG	3560 fluorescence intensity (a.u.)
CTAGTTTGAACCGTTACCCATCAGTCTATAAGCAGCACAACGGAGTCACCTAGTGCAG	4920 fluorescence intensity (a.u.)
ATCACGGAGGAGGCGTTCGGGGAGGGAGGGTGGGGCGCGCCGGAGTCACCTAGTGCAG	5770 fluorescence intensity (a.u.)

Sequence	binding signal
GCGTGCGCCACCGATGACGCAGTCACTCGGCTAACACGCGCGGAGTCACCTAGTGCAG	5750 fluorescence intensity (a.u.)
CACGGGGTGGTCGCGGGTCACAGTGACGGACGGTGCACGGCGGAGTCACCTAGTGCAG	20200 fluorescence intensity (a.u.)
CGGCGAGGCGAACTCAACGGGTACGCAAAGCGAAGAGGAGCGGAGTCACCTAGTGCAG	45600 fluorescence intensity (a.u.)
GAAATTTCATCACCATGGGAACGGTGACGCGGATGTAACCCGGAGTCACCTAGTGCAG	6090 fluorescence intensity (a.u.)
CGAATCTTTTGAGCCTAATTAATCTATCATTAGCACATGTCGGAGTCACCTAGTGCAG	3170 fluorescence intensity (a.u.)
GCCGCGACGGCGCCGGCCTCCGCCGCGCCGCATTCTTCCTCGGAGTCACCTAGTGCAG	3720 fluorescence intensity (a.u.)
ATTGGATGAGGTGACATATACAGCACTCATATCAGGGCTGCGGAGTCACCTAGTGCAG	3150 fluorescence intensity (a.u.)
CTCCCCGCCGGCGTGGCGGGGCGCCGCCTTCCATCGGTGTCGGAGTCACCTAGTGCAG	38600 fluorescence intensity (a.u.)
AACATAATGTTTTAACTTAAACCTTAATAATGAAATTTCTCGGAGTCACCTAGTGCAG	3670 fluorescence intensity (a.u.)
TACTTAGTAGCTAGGAGCTATATTGGTTGGAAAGGAGCGCCGGAGTCACCTAGTGCAG	51200 fluorescence intensity (a.u.)
ATCAGCTAAAACCAGGGACAATACTGTCAATGGACCTTATCGGAGTCACCTAGTGCAG	3330 fluorescence intensity (a.u.)
TGTCAATCGAGTAAACAACCGGTCTCAACAATCCACGTAACGGAGTCACCTAGTGCAG	23600 fluorescence intensity (a.u.)
TTATTAGTGGAGTTATAGTCCAACACTCAAACGATCACCACGGAGTCACCTAGTGCAG	3140 fluorescence intensity (a.u.)
CTACGATCAGAAACAGCGGGGCGGGTTGGGAGGGAGTCCACGGAGTCACCTAGTGCAG	3620 fluorescence intensity (a.u.)
AAAACACCAGTGTGTGTCAATGACATGCCATACCCGACATCGGAGTCACCTAGTGCAG	4460 fluorescence intensity (a.u.)
AGTTTATTAATCATGTGCTAATGACTCACCTTGTTTTGCACGGAGTCACCTAGTGCAG	12300 fluorescence intensity (a.u.)
ACGAAGCATCGTTTCCTGTGGCACACGCCTCACGGCGTATCGGAGTCACCTAGTGCAG	3830 fluorescence intensity (a.u.)
ACGATTCGGTCACTTCCTCTGACTCAACCGCTCATGTTGACGGAGTCACCTAGTGCAG	4320 fluorescence intensity (a.u.)
TGGCTCGCTGCCGTGGCGCGGGCGGAGCCTTAGGTTGTGCCGGAGTCACCTAGTGCAG	5400 fluorescence intensity (a.u.)
GCAAATGCAACGTAGCAGCTAGCTGTAAGCACGCACTTGGCGGAGTCACCTAGTGCAG	3180 fluorescence intensity (a.u.)
ATAAATCCGCCCAGCCCCGCCGCGCCATGCCCGCGAGACCCGGAGTCACCTAGTGCAG	14600 fluorescence intensity (a.u.)

Reformatted as a markdown table: part of the list above.

| Sequence | binding signal |
| --- | --- |
| GAAATTTCATCACCATGGGAACGGTGACGCGGATGTAACCCGGAGTCACCTAGTGCAG | 6090 fluorescence intensity (a.u.) |
| CGAATCTTTTGAGCCTAATTAATCTATCATTAGCACATGTCGGAGTCACCTAGTGCAG | 3170 fluorescence intensity (a.u.) |
| GCCGCGACGGCGCCGGCCTCCGCCGCGCCGCATTCTTCCTCGGAGTCACCTAGTGCAG | 3720 fluorescence intensity (a.u.) |
| ATTGGATGAGGTGACATATACAGCACTCATATCAGGGCTGCGGAGTCACCTAGTGCAG | 3150 fluorescence intensity (a.u.) |
| CTCCCCGCCGGCGTGGCGGGGCGCCGCCTTCCATCGGTGTCGGAGTCACCTAGTGCAG | 38600 fluorescence intensity (a.u.) |
| AACATAATGTTTTAACTTAAACCTTAATAATGAAATTTCTCGGAGTCACCTAGTGCAG | 3670 fluorescence intensity (a.u.) |
| TACTTAGTAGCTAGGAGCTATATTGGTTGGAAAGGAGCGCCGGAGTCACCTAGTGCAG | 51200 fluorescence intensity (a.u.) |
| ATCAGCTAAAACCAGGGACAATACTGTCAATGGACCTTATCGGAGTCACCTAGTGCAG | 3330 fluorescence intensity (a.u.) |
| TGTCAATCGAGTAAACAACCGGTCTCAACAATCCACGTAACGGAGTCACCTAGTGCAG | 23600 fluorescence intensity (a.u.) |
| TTATTAGTGGAGTTATAGTCCAACACTCAAACGATCACCACGGAGTCACCTAGTGCAG | 3140 fluorescence intensity (a.u.) |
| CTACGATCAGAAACAGCGGGGCGGGTTGGGAGGGAGTCCACGGAGTCACCTAGTGCAG | 3620 fluorescence intensity (a.u.) |
| AAAACACCAGTGTGTGTCAATGACATGCCATACCCGACATCGGAGTCACCTAGTGCAG | 4460 fluorescence intensity (a.u.) |
